From patent US20120172313A1, “TREATMENT OF PROLIFERATIVE DISEASES” (priority 2010, published 2012)
Read-outs that look alike come from different tables or passages of the source. Not every detail of the peptide structures is certain; ends, links or a residue may be inferred. Bridges are numbered along the chain shown (N, C = ends). Where no end group is shown, it is not given here. The star is where a group is joined. Carboxymethyl = O=C(O)C*

Key:
[1] = test system: human melanoma cancer MM170 cells; assay: PI uptake flow cytometry cell permeabilisation assay, MM170; format: cell-based; details: 30 min, 37° C.
[2] = Lipid-coated membrane strip binding assay (Echelon lipid strips); details: 0.12 μM, overnight, 4° C.
Protocol: Membrane Lipid Strips™, PIP Strips™ and Sphingo Strips™ (Echelon Biosciences, Salt Lake City, Utah) were incubated with PBS/3% BSA for 1-2 h at RT to block non-specific binding. The membrane strips were then incubated with defensins (0.12 μM) diluted in PBS/1% BSA overnight at 4° C., prior to thorough washing for 60 min at RT with PBS/0.1% Tween-20. […] After each antibody incubation, the membrane strips were washed extensively for 60 min at RT with PBS/0.1% Tween-20. Chemiluminescence was detected using the enhanced chemiluminescence (ECL) western blotting reagent (GE Healthcare BioSciences, NSW Australia) and exposed to Hyperfilm (GE Healthcare BioSciences, NSW, Australia) and developed using an Xomat (All-Pro-Imaging).
Densitometry analysis was performed on images obtained from lipid strips using ImageJ (National Institute of Health, Bethesda, Md.). Briefly, circles of equivalent size were traced around areas of interest. A background circle of equal size was also placed in the area on the membrane where there is no lipid and set as the background. The areas of interest were quantified as the average pixel intensity subtracted from the background.
These strips are spotted with 100 pmole of each lipid in a biologically active form.
Further investigation of the interaction of Solanaceae class I and class II defensins with cellular lipids was carried out by solid-state lipid binding assays using Echelon™ PIP Strips. […] Defensin binding was quantitated by densitometry on the developed lipid strips.

[3] = test system: human U937 myelomonocytic cells; assay: PI uptake flow cytometry cell permeabilisation assay, U937; format: cell-based
Protocol: (§1) Unless otherwise stated, cells were re-suspended at a cell concentration of 4×10^5 cells/mL in complete culture RPMI-1640 medium supplemented with 10% FBS, 100 U/mL penicillin and 100 μg/mL streptomycin, and added to either a V-bottom 96-well plate or microfuge tubes. Cells were kept at 37° C., unless otherwise stated, during protein addition (5 μL) at various concentrations or the set concentration of 10 μM. Typically, cells were mixed with the protein of interest and incubated at 37° C. for 30 min. In certain experiments, cells were also incubated at either 4° C. or 37° C. for 2-60 min prior to flow cytometry analysis. Cells were added to an equal volume of complete culture medium containing 2 μg/mL propidium iodide (PI, Annexin V-FITC Apoptosis Detection Kit, Invitrogen) and analysed immediately by flow cytometry using a FACSCanto cell sorter (Becton Dickson, Fanklin Lakes, N.J.) and Cell Quest Pro Software (Becton Dickson). Typically, 5000-10000 events per sample were collected and the resultant data were analysed using FlowJo software (Tree Star, Ashland, Oreg.). Cells were gated appropriately based on forward scatter (FSC) and side scatter (SSC), with the viable cells determined by their ability to exclude PI. For analysis purposes, all data was standardised relative to control (normal cell % ranged from approx. 0-7%).
(§2) To determine whether NaD1 kills tumour cells in a similar manner to fungus, the ability of NaD1 to permeabilise tumour cells was assessed using two different approaches. The first used a bioluminescence assay to measure the release of intracellular ATP.
(§3) The first used a bioluminescence assay to measure the release of intracellular ATP. 4×10^4 U937 (human myelomonocytic tumour cell line) were treated with increasing concentrations of PhD1A or rTPP3 (0-20-μM) and ATP release measured at intervals of 30 seconds for a total of 30 min by determining absorbance at 562 nm. The second approach used flow cytometry to determine the uptake of the fluorescent dye propidium iodide (PI) (2 μg/mL) by U937 (4×10^5/mL) following the treatment of cells with increasing concentrations of PhD1A (0 to 50 μM) or rTPP3 (0 to 40 μM) for 30 min.
(§4) The percentage of PI^+ cells was then determined by flow cytometry.
(§5) The first used a bioluminescence assay to measure the release of intracellular ATP. 4×10^4U937 were treated with 10 μM of each defensin and ATP release measured at intervals of 30 seconds for a total of 30 min by determining absorbance at 562 nm. The second approach used flow cytometry to determine the uptake of the fluorescent dye propidium iodide (PI) (2 μg/mL) by U937 (4×10^5/mL) following the treatment of cells with […] of each defensin for 30 min.

Aspergillus nidulans = details: cited from earlier work
Verticillium dahliae = details: cited from earlier work
Leptosphaeria maculans = details: cited from earlier work
[4] = test system: human PC3 cells (prostate cancer); assay: Field emission-scanning electron microscopy of treated cells; format: cell-based; details: 10 μM, 30 min
[5] = test system: Fusarium oxysporum f. sp. vasinfectum; details: cited from earlier work
Thielaviopsis basicola = details: cited from earlier work
[6] = test system: U937 human myelomonocytic cells; assay: ATP bioluminescence (ATP release) assay, U937; format: cell-based; details: for release of ATP from U937 cells: read over 30 min
Protocol: ATP bioluminescence assay (Roche Diagnostics, NSW Australia) was used to quantitate the release of ATP by permeabilised tumour cells. The Luciferase reagent was dissolved as per manufacturer's instructions and incubated for 5 min at 4° C. Briefly, cells were re-suspended at a concentration of 1×10^6 cells/mL in 1×PBS/0.1% BSA and added (40 μL/well) to the Luciferase reagent (50 μL/well) to a blank microtitre plate (Nunc™) containing 10 μL of protein samples. Simultaneously, using a multichannel pipette, the mixture was added (90 μL/well) and samples were immediately read on a microtitre plate reader at 562 nm for 30 min with readings taken at 30 s intervals. The data were analysed by SoftMaxPro 4.0 software (Molecular Devices Company).
as §2, §3, §5

MM170 cells = assay: ATP bioluminescence (ATP release) assay, MM170; format: cell-based, human; details: read over 30 min
B16-F1 melanoma tumours = assay: In vivo solid B16-F1 melanoma growth model; parameters: species or system C57BL/6 mice; details: for average tumour size (normalised to 1 for each mouse at day 0): day 4, 1 mg/kg body weight intratumourally every 2 days
U937 cells = assay: PI uptake permeabilisation assay in the presence of serum; format: cell-based, human; details: for PI+ U937 cells: 10 μM defensin; for activity on tumour cells in the presence of serum: up to 40% serum
Protocol: as §1, §4
To assess the ability of PhD1A or rTPP3 to permeabilise tumour cells in the presence of serum, the PI-uptake flow cytometry assay was utilised as described in Example 2 with the following modifications: 4×10^5/mL U937 cells were incubated with […] PhD1A or rTPP3 in the presence of increasing concentrations of foetal calf serum (FCS) (0 to 40%) for 60 min followed by addition of 2 μg/mL PI. The percentage of PI^+ cells was then determined by flow cytometry.

mouse melanoma B16-F1 = assay: MTT cell viability assay, B16-F1; format: cell-based; details: 0 to 30 μM or 0 to 50 μM
[7] = test system: tumour cell lines (PC3, HCT-116, MCF-7, MM170, B16-F1); assay: MTT cell viability assay, tumour cell lines; format: cell-based, human, mouse; details: up to 100 μM

With “RECKTESNTFPGICITKPPCRKACISEKFTDGHCSKILRRCLCTKPC (disulfide 3-47, 14-34, 20-41, 24-43) [NaD1]” the “PI+ MM170 cells” value ([1]; 6.25 μM) was ~30%, the “PI+ MM170 cells” value ([1]; 100 μM) was 100% and the “binding to PtdIns(PIP): PtdIns(3)P, PtdIns(4)P, PtdIns(5)P” value [2] was “strong binding”. The binding to cardiolipin [2] was “strong binding”, the “binding to phosphatidylserine, phosphatidylalanine, phosphatidylglycerol and sulfatide” value [2] was “weak binding” and the “binding to phosphoinositides PtdIns(PIP2) and (PIP3)” value [2] was “bound most strongly”. The “PI+ U937 cells” value ([3]; 6.25 μM, 30 min, 37° C.) was ~30%, the “PI+ U937 cells (mean ± SEM)” value ([3]; 10 μM, absence of serum, Example 9, cell only control 27.03±0.52) was 56.07±3.65% and the “PI+ U937 cells” value ([3]; 100 μM, 30 min, 37° C.) was 100%. For the same substance, the “PI+ U937 cells” value ([3]; Example 11, 30 min at 37° C., concentration printed 'at 100' (10 μM in the same block)) was ~60%, the “growth inhibition of A. nidulans” value (Aspergillus nidulans; 1 μM) was “approximately 65%” and the “growth inhibition of A. nidulans” value (Aspergillus nidulans; 5 μM) was “more than 80%”. For the same substance, the “growth inhibition of V. dahliae” value (Verticillium dahliae; 1 μM) was “approximately 65%”, the “growth inhibition of V. dahliae” value (Verticillium dahliae; 5 μM) was “more than 80%” and the “growth inhibition of L. maculans” value (Leptosphaeria maculans; 1 μM) was 50%. The “growth inhibition of L. maculans” value (Leptosphaeria maculans; 5 μM) was “more than 80%”, the “morphology of treated PC3 cells (FE-SEM)” value [4] was “disrupted plasma membrane” and the “growth inhibition of Fov” value ([5]; 1 μM) was 50%. The “growth inhibition of Fov” value ([5]; 5 μM) was “more than 80%”, the “growth inhibition of T. basicola” value (Thielaviopsis basicola; 1 μM) was “approximately 65%” and the “growth inhibition of T. basicola” value (Thielaviopsis basicola; 5 μM) was “more than 80%”. For the same substance, the “release of ATP from U937 cells” value [6] was “release of ATP in a time-dependent and concentration-dependent manner”, the “time of peak of ATP release” value ([6]; tumour cells, after addition to cells) was ~5 min and the “release of ATP from MM170 cells” value (MM170 cells) was “release of ATP in a time-dependent and concentration-dependent manner”. The “effect on tumour growth compared to NaD1R&A and PBS alone” value (B16-F1 melanoma tumours; 1 mg/kg body weight, intratumour injection) was “significant reduction in tumour growth”, the “average tumour size (normalised to 1 for each mouse at day 0)” value (B16-F1 melanoma tumours) was 1.8±0.2 and the “PI+ U937 cells” value (U937 cells; 0% FCS) was 90%. For the same substance, the “PI+ U937 cells” value (U937 cells; 40% FCS) was 70% and the “activity on tumour cells in the presence of serum” value (U937 cells) was “retained the ability to kill tumour cells”.

In the case of “ARECKTESNTFPGICITKPPCRKACISEKFTDGHCSKILRRCLCTKPC (disulfide 4-48, 15-35, 21-42, 25-44) [rNaD1]”, the “binding to phosphatidylserine, phosphatidylalanine and phosphatidylglycerol compared with NaD1” value [2] is reported as “stronger binding” and the “activity on tumour cells in the presence of serum” value (U937 cells) is reported as “retained the ability to kill tumour cells”.

In the case of “REC(Carboxymethyl)KTESNTFPGIC(Carboxymethyl)ITKPPC(Carboxymethyl)RKAC(Carboxymethyl)ISEKFTDGHC(Carboxymethyl)SKILRRC(Carboxymethyl)LC(Carboxymethyl)TKPC(Carboxymethyl) [NaD1R&A, reference compound]”, the “binding to any cellular lipids” value [2] is reported as “no binding”, the “effect on tumour cell viability, B16-F1” value (mouse melanoma B16-F1) is reported as “no effect” and the “effect on tumour cell viability (MTT)” value [7] is reported as “did not affect tumour cell viability”. The “activity in growth inhibitory assays with Fov” value ([5]; even at a concentration ten-fold higher than the IC50 for NaD1) was “completely inactive”, the “release of ATP from U937 cells” value [6] was “no ability to permeabilise” and the “release of ATP from MM170 cells” value (MM170 cells) was “no ability to permeabilise”. For the same substance, the “average tumour size (normalised to 1 for each mouse at day 0)” value (B16-F1 melanoma tumours) was 4.0±0.4.
